Results are given in words; binding and its absence hold for the method and conditions named. Binding seen in cells or lysates may run through a third protein. Here binding means that the protein was enriched with, or labelled near, the bait; the list need not be complete.
Molecular target: IκBα (human (endogenous in DB)) (UniProt P25963)
Assay: affinity purification with mass spectrometry; immunoprecipitation with IκBα antibodies from DB cells treated with chidamide or left untreated for 24 h; SDS-PAGE, bands excised, trypsin digestion, LC-MS

Sequences of proteins named here, by UniProt entry; tags and fusion partners are left off.
UniProt P25963: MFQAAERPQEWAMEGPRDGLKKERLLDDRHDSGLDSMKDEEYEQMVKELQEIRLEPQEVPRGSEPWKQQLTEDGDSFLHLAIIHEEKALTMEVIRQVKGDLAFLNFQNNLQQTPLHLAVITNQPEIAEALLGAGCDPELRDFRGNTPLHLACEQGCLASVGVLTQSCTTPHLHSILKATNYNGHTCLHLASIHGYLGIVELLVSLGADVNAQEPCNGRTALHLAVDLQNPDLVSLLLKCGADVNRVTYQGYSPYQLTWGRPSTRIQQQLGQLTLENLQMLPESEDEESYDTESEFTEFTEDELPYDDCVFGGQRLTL
UniProt P16401: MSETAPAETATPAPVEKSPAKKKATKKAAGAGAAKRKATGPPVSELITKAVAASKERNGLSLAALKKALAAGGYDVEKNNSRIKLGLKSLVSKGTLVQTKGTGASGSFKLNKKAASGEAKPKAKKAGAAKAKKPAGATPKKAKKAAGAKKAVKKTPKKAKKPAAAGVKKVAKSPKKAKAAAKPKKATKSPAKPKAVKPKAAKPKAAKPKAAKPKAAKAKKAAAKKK

Histone H1.5 (from UniProt P16401 1-226)
binding: binds

Source: paper PMC12501026
